Assay results reported in patent US20160108382.
The exact form of at least one protein or probe is not confirmed.

Protein sequences, listed by entry. Tags and fused reporters are not part of them. Lines headed by an entry give the natural chain unless they say otherwise; changes in a name come on top.
UniProt P06526: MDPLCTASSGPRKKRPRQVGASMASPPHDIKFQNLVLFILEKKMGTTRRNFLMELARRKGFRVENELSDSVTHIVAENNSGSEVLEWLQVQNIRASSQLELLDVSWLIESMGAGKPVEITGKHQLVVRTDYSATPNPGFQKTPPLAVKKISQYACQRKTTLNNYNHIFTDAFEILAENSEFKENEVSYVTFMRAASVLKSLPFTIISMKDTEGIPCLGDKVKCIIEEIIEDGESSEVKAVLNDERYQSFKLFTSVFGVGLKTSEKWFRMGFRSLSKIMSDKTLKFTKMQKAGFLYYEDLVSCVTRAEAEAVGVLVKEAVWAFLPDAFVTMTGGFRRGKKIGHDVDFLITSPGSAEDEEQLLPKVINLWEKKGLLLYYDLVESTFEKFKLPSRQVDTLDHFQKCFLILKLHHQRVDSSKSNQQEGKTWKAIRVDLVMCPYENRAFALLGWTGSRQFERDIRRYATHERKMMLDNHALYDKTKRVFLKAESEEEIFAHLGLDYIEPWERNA

Target: terminal deoxynucleotidyl transferase (TdT) (UniProt P06526)
Test: activity assay
Settings: CITED Tjong et al. 2011; template-independent extension with dATP, agarose gel time course; purified recombinant protein; label: 5'-Cy5; single-stranded DNA

AAAAAAAAAA [5'-Cy5-dA10 strand initiator]
activity on this sequence: active
